Results are given in words; binding and its absence hold for the method and conditions named. Binding seen in cells or lysates may run through a third protein. Some binding calls cover weakened binding; strength is not graded here.

Chains of the proteins cited; added tags and fusions are not shown. Residues count along the entry.
UniProt Q8K2B3, residues 43-664: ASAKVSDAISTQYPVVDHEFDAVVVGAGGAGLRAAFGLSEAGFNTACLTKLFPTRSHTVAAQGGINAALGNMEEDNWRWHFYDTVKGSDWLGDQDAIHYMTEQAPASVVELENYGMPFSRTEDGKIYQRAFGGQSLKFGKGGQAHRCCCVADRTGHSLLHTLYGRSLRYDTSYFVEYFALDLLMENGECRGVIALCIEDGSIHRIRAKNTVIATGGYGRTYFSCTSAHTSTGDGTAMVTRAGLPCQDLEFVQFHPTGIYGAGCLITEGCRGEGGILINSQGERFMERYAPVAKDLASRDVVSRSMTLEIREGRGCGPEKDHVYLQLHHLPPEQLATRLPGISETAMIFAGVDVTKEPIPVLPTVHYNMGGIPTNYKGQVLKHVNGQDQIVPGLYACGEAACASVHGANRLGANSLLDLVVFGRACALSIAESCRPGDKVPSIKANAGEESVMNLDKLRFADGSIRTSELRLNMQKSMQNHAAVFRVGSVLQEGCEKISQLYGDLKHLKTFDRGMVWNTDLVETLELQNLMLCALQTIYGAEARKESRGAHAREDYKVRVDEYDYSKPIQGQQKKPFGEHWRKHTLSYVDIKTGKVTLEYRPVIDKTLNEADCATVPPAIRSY
UniProt Q9D6J5, residues 29-186: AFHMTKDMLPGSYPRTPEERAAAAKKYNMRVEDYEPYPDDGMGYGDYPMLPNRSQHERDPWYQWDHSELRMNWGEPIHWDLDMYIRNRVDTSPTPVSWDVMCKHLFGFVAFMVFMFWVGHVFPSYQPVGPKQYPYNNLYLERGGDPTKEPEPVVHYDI
UniProt Q03265, residues 44-553: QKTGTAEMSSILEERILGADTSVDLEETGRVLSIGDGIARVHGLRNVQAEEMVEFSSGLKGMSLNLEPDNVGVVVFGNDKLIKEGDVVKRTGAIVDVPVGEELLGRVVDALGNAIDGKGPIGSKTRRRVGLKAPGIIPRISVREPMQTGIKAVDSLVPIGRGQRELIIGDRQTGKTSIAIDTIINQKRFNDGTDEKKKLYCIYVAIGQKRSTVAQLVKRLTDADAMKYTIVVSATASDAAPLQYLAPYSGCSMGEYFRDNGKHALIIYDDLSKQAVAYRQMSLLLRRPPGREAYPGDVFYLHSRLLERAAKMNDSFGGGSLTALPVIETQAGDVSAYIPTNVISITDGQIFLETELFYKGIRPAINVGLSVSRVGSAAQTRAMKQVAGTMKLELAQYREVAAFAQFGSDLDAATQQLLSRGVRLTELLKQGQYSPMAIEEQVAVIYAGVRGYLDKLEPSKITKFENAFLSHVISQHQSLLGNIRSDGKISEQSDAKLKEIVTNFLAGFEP

B1: Complex III cytochrome b-c1 complex subunit 2 (protein, UniProt Q9DB77 15-453)
chain: SLKVAPKVKTSAAPGGVPLQPQDLEFTKLPNGLVIASLENYAPLSRIGLFVKAGSRYEDSNNLGTSHLLRLASSLTTKGASSFKITRGIEAVGGKLSVTATRENMAYTVEGIRSDIEILMEFLLNVTTAPEFRRWEVAALRSQLKIDKAVAFQNSQTRIIENLHDVAYKNALANPLYCPDYRMGKITSEELHYFVQNHFTSARMALVGLGVSHSVLKQVAEQFLNMRGGLGLAGAKAKYRGGEIREQNGDNLVHAAIVAESAAIGNAEANAFSVLQHLLGAGPHIKRGNNTTSLLSQSVAKGSHQPFDVSAFNASYSDSGLFGIYTISQAAAAGEVINAAYNQVKAVAQGNLSSADVQAAKNKLKAGYLMSVETSEGFLSEIGSQALAAGSYMPPSTVLQQIDSVADADVVKAAKKFVSGKKSMAASGNLGHTPFLDEL
B2: succinate dehydrogenase subunit B (protein, UniProt Q9CQA3 31-282)
chain: AQTAAAAAPRIKKFAIYRWDPDKTGDKPRMQTYEVDLNKCGPMVLDALIKIKNEVDSTLTFRRSCREGICGSCAMNINGGNTLACTRRIDTDLSKVSKIYPLPHMYVIKDLVPDLSNFYAQYKSIEPYLKKKDESQEGKQQYLQSIEDREKLDGLYECILCACCSTSCPSYWWNGDKYLGPAVLMQAYRWMIDSRDDFTEERLAKLQDPFSVYRCHTIMNCTQTCPKGLNPGKAIAEIKKMMATYKEKRALA

For the experiment, the target named is succinate dehydrogenase subunit A (mouse (endogenous in iBMDM)) (UniProt Q8K2B3). As to the kind of experiment: co-IP; SDHA antibody (14865-1-AP, 5 ug) cross-linked to protein A/G agarose (Pierce Cross-link IP kit); whole-cell extracts of iBMDM in 1% dodecyl maltoside, overnight at 4°C; control IgG; cells unstimulated or stimulated with LPS (200 ng/ml) for 8 or 24 hours; immunoblot of ATP5A, UQCRC2, SDHA, SDHB, NDUFB8. In general terms: In western blotting, separated proteins are transferred to a membrane and probed.
As for “Complex I NADH dehydrogenase ubiquinone beta subcomplex subunit 8 (from UniProt Q9D6J5 29-186)”, the binding entry was “no binding”.
With “Complex V ATP synthase F1 subunit alpha (from UniProt Q03265 44-553)”, the binding entry is listed as “no binding”.
Turning to B1, the binding result is “no binding”.
B2: the binding result is listed as “binds”.
